In article PMC11782663 one finds binding data, which are given here for one molecule.

Chains of the proteins cited; added tags and fusions are not shown. Lines headed by an entry give the natural chain unless they say otherwise; changes in a name come on top.
UniProt Q08775: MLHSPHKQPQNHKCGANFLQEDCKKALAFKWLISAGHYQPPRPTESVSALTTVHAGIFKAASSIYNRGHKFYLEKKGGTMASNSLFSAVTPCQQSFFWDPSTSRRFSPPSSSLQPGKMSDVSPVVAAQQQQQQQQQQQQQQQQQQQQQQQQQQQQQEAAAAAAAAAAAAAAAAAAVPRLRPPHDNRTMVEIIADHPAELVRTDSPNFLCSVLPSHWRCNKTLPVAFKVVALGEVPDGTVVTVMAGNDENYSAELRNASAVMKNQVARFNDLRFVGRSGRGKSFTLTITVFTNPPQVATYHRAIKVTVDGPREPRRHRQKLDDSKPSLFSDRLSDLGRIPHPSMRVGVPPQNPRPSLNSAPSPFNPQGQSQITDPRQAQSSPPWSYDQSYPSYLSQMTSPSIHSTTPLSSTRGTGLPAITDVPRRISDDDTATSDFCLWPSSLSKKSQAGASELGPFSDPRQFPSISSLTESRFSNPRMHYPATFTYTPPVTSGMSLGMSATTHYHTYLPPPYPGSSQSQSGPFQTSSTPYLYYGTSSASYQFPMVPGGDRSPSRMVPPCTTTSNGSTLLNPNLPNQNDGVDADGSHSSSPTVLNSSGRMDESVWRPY

Results are given in words; binding and its absence hold for the method and conditions named. Binding seen in cells or lysates may run through a third protein. These calls come from enrichment with a bait or labelling near it, and not all partners need be listed.

For this assay, the target named is Runt-related transcription factor 2 (RUNX2), endogenous (mouse (endogenous in BMSCs)) (UniProt Q08775). As to the kind of experiment: affinity purification with mass spectrometry; binding proteins co-immunoprecipitated with RUNX2 on protein A/G magnetic beads from BMSCs of FXRfl/fl and FXRprx1 littermates after 4 days of osteogenic differentiation; eluates by LC-MS/MS.

B1: Thoc6, endogenous (protein, UniProt Q5U4D9 1-341)
chain: MEHAAPLAVPLGQAEVFQALQRLHMTIFSQSVSPCGKFLAAGNNYGQIAIFSLSAALSSEAKEESKKPVVVFHAHDGPVYSMVSTDRHLLSAGDGEVKGWLWAEILKKGCKELWRRQPPYRTSLEVPEINALLLVPKENSLILAGGDCQLHSMDLETGAFTRALRGHTDYIHCLALRERSPEVLSGGEDGAVRLWDLRIAKEVQTIEVYKHEECSRPHNGRWIGCLATDSDWMVCGGGPALTLWHLRSSTPTTVFPIRAPQKHVTFYQDLILSAGQGCCVNHWQLSGELKAQVPGSSPGLLSLSLNQQPAAPECKVLTASGNSCRVDVFTNLGYRAFSLSF
For the molecule B1, the binding result is reported as “binds”.
